# Source: patent publication US20030215907
# For some assays here: Tags and fusion partners may be left off the protein sequences shown. For some assays here: For at least one entry, the source does not settle the construct or the ends of the probe.
# Columns and labels:
# [1] = test system: PpuMI restriction endonuclease (native) (Pseudomonas putida); test: enzyme reaction in vitro; details: 4 units native PpuMI; purified native protein; protein details: New England Biolabs; only the site is given
# [2] = test system: T1, PpuMI restriction endonuclease (recombinant, clones PP2/PP3) (Pseudomonas putida); test: enzyme reaction in vitro; details: complete digestion at 1:10 extract dilution, partial at 1:100; protein in a lysate after overexpression; only the site is given
# T1 sequence: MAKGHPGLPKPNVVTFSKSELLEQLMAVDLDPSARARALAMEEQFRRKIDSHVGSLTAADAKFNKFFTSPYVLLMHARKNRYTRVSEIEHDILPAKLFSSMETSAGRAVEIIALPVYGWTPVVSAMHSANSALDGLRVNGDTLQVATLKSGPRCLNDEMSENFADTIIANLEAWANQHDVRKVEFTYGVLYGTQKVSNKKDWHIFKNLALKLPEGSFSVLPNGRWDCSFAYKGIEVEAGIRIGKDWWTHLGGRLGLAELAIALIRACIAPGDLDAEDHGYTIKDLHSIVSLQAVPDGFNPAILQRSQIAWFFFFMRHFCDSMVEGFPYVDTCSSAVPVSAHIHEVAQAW
sequence,measurement,setting,value
AGATCTTCTTGAGATCCTTTTAGGTCCTGCGTAATCTGCTGCCGGC (double strand),activity on this sequence,[1],active
same,activity on this sequence,[2],active
